For assay [1], the target named is T1, cAMP-regulated transcriptional co-activator 1 (CRTC1) (mouse (endogenous in mouse fibroblasts and SCN tissue)) (UniProt Q68ED7).
T1 sequence: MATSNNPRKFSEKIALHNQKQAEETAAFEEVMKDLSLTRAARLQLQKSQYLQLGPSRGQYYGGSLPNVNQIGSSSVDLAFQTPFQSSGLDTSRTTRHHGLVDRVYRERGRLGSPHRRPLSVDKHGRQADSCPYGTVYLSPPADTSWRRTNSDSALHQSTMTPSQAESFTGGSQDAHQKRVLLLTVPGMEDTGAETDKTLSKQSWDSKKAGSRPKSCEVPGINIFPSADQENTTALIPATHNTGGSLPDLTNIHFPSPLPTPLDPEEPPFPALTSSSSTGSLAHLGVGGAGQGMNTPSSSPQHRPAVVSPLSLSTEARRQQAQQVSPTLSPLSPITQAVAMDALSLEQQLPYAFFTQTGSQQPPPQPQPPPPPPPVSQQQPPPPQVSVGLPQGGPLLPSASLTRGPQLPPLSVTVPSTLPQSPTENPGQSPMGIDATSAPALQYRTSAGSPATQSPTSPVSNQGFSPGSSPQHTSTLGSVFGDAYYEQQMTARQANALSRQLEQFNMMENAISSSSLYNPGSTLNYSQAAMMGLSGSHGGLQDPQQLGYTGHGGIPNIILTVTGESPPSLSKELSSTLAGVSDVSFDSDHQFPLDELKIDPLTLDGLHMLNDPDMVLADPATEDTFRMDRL
Description: co-IP; circa 400 ug extract of pooled mouse SCN (wt and Per2 KO), collected in the dark or 15 min after a light pulse at ZT14; antibody 1:50 at 4 °C overnight, protein-A agarose, Western blot.

Sequences of proteins named here, by UniProt entry; tags and fusion partners are left off.
UniProt O54943: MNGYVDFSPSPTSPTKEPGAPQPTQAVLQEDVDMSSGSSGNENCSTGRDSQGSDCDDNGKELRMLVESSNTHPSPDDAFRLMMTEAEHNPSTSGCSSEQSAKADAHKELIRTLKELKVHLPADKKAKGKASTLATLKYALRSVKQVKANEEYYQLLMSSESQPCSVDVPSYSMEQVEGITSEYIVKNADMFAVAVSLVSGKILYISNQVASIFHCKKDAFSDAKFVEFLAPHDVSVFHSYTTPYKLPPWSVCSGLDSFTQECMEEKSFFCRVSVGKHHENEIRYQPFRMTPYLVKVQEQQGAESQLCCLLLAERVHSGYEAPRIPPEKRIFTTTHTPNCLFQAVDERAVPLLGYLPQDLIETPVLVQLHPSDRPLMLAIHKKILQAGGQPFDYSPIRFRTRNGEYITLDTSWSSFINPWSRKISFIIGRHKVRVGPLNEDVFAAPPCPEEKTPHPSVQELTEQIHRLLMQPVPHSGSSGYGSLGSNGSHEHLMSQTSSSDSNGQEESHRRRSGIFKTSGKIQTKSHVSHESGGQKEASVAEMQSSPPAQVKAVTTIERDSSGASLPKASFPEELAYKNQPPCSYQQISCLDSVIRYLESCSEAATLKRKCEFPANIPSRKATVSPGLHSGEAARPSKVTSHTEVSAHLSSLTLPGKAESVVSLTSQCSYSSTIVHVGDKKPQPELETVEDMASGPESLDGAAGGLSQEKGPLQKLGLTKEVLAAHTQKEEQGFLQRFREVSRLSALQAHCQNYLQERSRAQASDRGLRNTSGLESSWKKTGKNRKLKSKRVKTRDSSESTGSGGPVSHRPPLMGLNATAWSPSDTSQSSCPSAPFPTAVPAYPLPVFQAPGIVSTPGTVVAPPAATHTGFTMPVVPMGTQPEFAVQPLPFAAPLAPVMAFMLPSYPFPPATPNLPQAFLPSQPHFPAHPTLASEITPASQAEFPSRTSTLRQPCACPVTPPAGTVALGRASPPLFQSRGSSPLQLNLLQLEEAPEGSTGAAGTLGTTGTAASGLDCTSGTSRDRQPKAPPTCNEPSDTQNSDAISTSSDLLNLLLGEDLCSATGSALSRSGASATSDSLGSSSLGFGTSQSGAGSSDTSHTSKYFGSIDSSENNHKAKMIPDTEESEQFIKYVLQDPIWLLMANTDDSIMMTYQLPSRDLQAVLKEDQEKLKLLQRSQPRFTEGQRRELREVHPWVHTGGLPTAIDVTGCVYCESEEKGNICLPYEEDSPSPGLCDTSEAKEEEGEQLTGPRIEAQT

Assay [2] has as its target T1, cAMP-regulated transcriptional co-activator 1 (CRTC1) (mouse (endogenous in mouse fibroblasts and SCN tissue)). Description: co-IP; circa 400 ug Ripa extract of mouse fibroblasts (NIH 3T3; wt and Per2 KO lines), before and after forskolin (25 min); antibody 1:50 at 4 °C overnight, protein-A agarose, washes with NP-40 buffer, Western blot. On the technique in general: Immunoblotting shows a protein as a band on a membrane.

Results are given in words; binding and its absence hold for the method and conditions named. Binding seen in cells or lysates may run through a third protein. Some results given as binding are weak or reduced against the parent protein; the word gives no strength.

On to PER2 (from UniProt O54943 1-1257), for which the binding entry in assay [1] and in assay [2] was “binds” throughout.
